Measurements from “University of Dundee, Small-Polar-MMV Screening Library” (2021), ChEMBL document CHEMBL3988442.

Mtb glucose medium: 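Whole-cell growth test on Mycobacterium tuberculosis, read after 3 days in glucose-containing 7H9 medium; the read-out is not stated. Tested at 50 µM. Higher reads as more growth inhibition (inferred: compounds with an IC50 in retests scored well above the rest). Size under these conditions: about 69,000 compounds, about 760 of them at 50% or above in at least one test.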
Mtb cholesterol medium: 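Whole-cell growth test on Mycobacterium tuberculosis, read after 4 days in a medium based on cholesterol and the lipid DPPC; the read-out is not stated. Compounds at 50 µM. The record gives no direction; compounds that gave an IC50 in retests scored well above the rest, so higher reads as more growth inhibition. About 69,000 compounds were tested under these conditions; 0.54% (about 370) showed 50% or more at least once.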

Results are given as percent effect.
The controls that fix the scale are not given in the record; negative values are as filed.
This is an unselected part of the compounds tested.
Two or more numbers in one place are separate tests of the same structure; such repeats can differ widely.

For CC1c2ncc(COCC3CC3)n2CCN1C.O=C(O)C(F)(F)F (stereo not given) the result was Mtb glucose medium: -4.674% & -2.766%; Mtb cholesterol medium: -17.75%. For Cc1ccc(S(=O)(=O)Cc2noc([C@@H]3C[C@@H](O)CN3)n2)cc1 the result was Mtb glucose medium: 12.07% & 0.09911%; Mtb cholesterol medium: 4.492%. [H][C@@]12CCN(CC3CCOCC3)C[C@@]1([H])[C@H](C(=O)N1CCCC1)CCO2 gave Mtb glucose medium: -0.8527%; Mtb cholesterol medium: -11.9%. With COc1ccc(Cl)cc1-c1nc(N)nc(N)n1 the screen gave Mtb glucose medium: 2.761% & -0.017%; Mtb cholesterol medium: -9.747%. CNC(=O)[C@@H]1C[C@@H](NC(=O)CSc2ccccc2)CN1C1CCOCC1 gave Mtb glucose medium: -3.372%; Mtb cholesterol medium: 6.122% & -18.26%. O=C(CCC1CCN(C2CCSCC2)CC1)NCC1CCCO1 (stereo not given) gave Mtb glucose medium: -2.41% & 19.01%; Mtb cholesterol medium: 21.7%.

For CC(C)c1nnc(CNC2CCCN(Cc3noc(C4CC4)n3)C2)o1 (stereo not given) the result was Mtb glucose medium: -23.21%; Mtb cholesterol medium: -16.82%. CN(Cc1cnc(N)nc1)C(=O)c1coc(COc2ccccc2)n1 gave Mtb glucose medium: 19.59%; Mtb cholesterol medium: 16.57%. CN(C)CCC1CCCCN1Cc1cnn(C)c1C1CC1 (stereo not given) gave Mtb glucose medium: 3.722%; Mtb cholesterol medium: -2.34% & -6.788%. With O=C(c1cnn2c1OCCC2)N1CCN(C(=O)C2CCCO2)CC1 (stereo not given) the screen gave Mtb glucose medium: 10.29%; Mtb cholesterol medium: 5.729%. With COCCN1CCN(Cc2c(C)noc2C)Cc2cccnc21.O=C(O)C(F)(F)F.O=C(O)C(F)(F)F the screen gave Mtb glucose medium: 10.04%; Mtb cholesterol medium: 0.2059% & -11.55%. COc1c(CNCc2ccccc2Cn2cncn2)c(C)nn1C gave Mtb glucose medium: -15.15%; Mtb cholesterol medium: 5.749%.

Result for CC(C)[C@H](NS(C)(=O)=O)C(=O)NCc1cc(-c2ccccc2)n[nH]1 was Mtb glucose medium: 7.45%; Mtb cholesterol medium: -11.05%. For Cc1n[nH]c(C)c1C1COCCN1C(=O)c1ccccc1 (stereo not given) the result was Mtb glucose medium: -6.252%; Mtb cholesterol medium: 9.122%. Result for CCc1c(C(=O)N2CCCC(N(C)C)C2)cnn1C(C)(C)C (stereo not given) was Mtb glucose medium: -24.04%; Mtb cholesterol medium: -17.75%. With Cc1cc(-c2nnn(CCNS(C)(=O)=O)n2)ccc1F the screen gave Mtb glucose medium: -2.021%; Mtb cholesterol medium: 2.136%. With COc1ccccc1N1CCN(C(=O)CSC(C)C)C(C)C1 (stereo not given) the screen gave Mtb glucose medium: 11.37% & 17.28%; Mtb cholesterol medium: 1.083%. CC(C)c1ccc(S(=O)(=O)NC2(CC(N)=O)CCC2)cc1 read Mtb glucose medium: 28.64%; Mtb cholesterol medium: -4.524%.

CN1CCCC(CCC(=O)N2CCc3onc(C(=O)N(C)C)c3C2)C1 (stereo not given) gave Mtb glucose medium: 0.3749%; Mtb cholesterol medium: -2.639% & -4.673%. For Cc1ccc(C(=O)N2C[C@@H](C(=O)O)[C@H](c3ccncc3)C2)cc1F the result was Mtb glucose medium: -30.91%; Mtb cholesterol medium: -6.393%. CC(C)c1nc(C2CCCN(C(=O)c3nccn4ccnc34)C2)no1 (stereo not given) gave Mtb glucose medium: 11.14%; Mtb cholesterol medium: 3.136%. For CN(C)CCOc1cc(NC(=O)COCC(F)(F)F)ccn1 the result was Mtb glucose medium: 29.95% & 0.08323%; Mtb cholesterol medium: 1.368%. For COCC(=O)NCCn1ccc2c(OC)cccc21 the result was Mtb glucose medium: 23.1%; Mtb cholesterol medium: 4.114%. O=C(Cc1ccc2c(c1)CCO2)N1CCN(c2ccccn2)CC1 read Mtb glucose medium: 3.45% & -21.48%; Mtb cholesterol medium: 17.73%.

With CC(C)C(=O)N1CCCC(c2ncncc2-c2ccncc2)C1 (stereo not given) the screen gave Mtb glucose medium: -15.76%; Mtb cholesterol medium: 7.467%. Result for CCn1cc(N)c(-c2nnc3n2CCCC3)n1 was Mtb glucose medium: -2.467%; Mtb cholesterol medium: -9.287%. With CC(C)CN1CCc2[nH]cnc2C12CCN(C(=O)c1cncn1C)CC2 the screen gave Mtb glucose medium: -13.11%; Mtb cholesterol medium: -11.11%. COCCCNc1c(C#N)c2c(c3nncn13)CN(C)CC2.Cl gave Mtb glucose medium: -31.02%; Mtb cholesterol medium: -15.82%. CC(=O)NCC(=O)N1CCN(CC2CC2)c2ncccc2C1 read Mtb glucose medium: -27.5%; Mtb cholesterol medium: -11.13%. With Cc1nc(CN(C)C2CCCN(c3cccnn3)C2)no1 (stereo not given) the screen gave Mtb glucose medium: -28.27%; Mtb cholesterol medium: -28.95%.

O=C(NCc1nc2ccccc2[nH]1)c1cnn2c1OCCC2 read Mtb glucose medium: 49.14% & 11.79%; Mtb cholesterol medium: 41.36%. With Cc1ncsc1CN1CC2(CCCC2)CC1=O the screen gave Mtb glucose medium: 7.286% & -2.469%; Mtb cholesterol medium: 23.97%. For CC(C)(C)c1nnc(CN2CCN(CC(O)c3ccccc3)CC2)o1 (stereo not given) the result was Mtb glucose medium: -14.4%; Mtb cholesterol medium: -14.58%. For Cc1cnc(NC(=O)NC(CCO)c2cccs2)s1 (stereo not given) the result was Mtb glucose medium: 38.12%; Mtb cholesterol medium: 41.52%. CCOc1ncccc1CNC(=O)NCCNC(=O)c1ccco1 read Mtb glucose medium: -20.09%; Mtb cholesterol medium: 12.03%. With CN(C)C(=O)CO[C@H]1CO[C@@]2(CCN(S(C)(=O)=O)C2)C1 the screen gave Mtb glucose medium: -34.13%; Mtb cholesterol medium: -1.891%.

CSCCC(NC(N)=O)C(=O)Nc1ccc(-n2cccn2)nc1 (stereo not given) gave Mtb glucose medium: -5.275% & 1.35%; Mtb cholesterol medium: 11.98%. For Cc1cccnc1CNC[C@H]1Cn2cc(-c3ccccc3)nc2CO1 the result was Mtb glucose medium: 5.683% & 5.601%; Mtb cholesterol medium: -1.596%. With Cn1cccc1CN1CCc2ncnc(-c3cccnc3)c2CC1 the screen gave Mtb glucose medium: 1.67%; Mtb cholesterol medium: 10.47%. With O=C1CN([C@@H]2CC[C@@H](NS(=O)(=O)c3ccccc3F)[C@H]2O)CCN1 the screen gave Mtb glucose medium: -3.514%; Mtb cholesterol medium: -23.23% & -11.13%. For [H][C@]12CCN(C(=O)c3ccc(OCCC)c(Cl)c3)C[C@]([H])(CC1)N2 the result was Mtb glucose medium: 3.441%; Mtb cholesterol medium: -4.229%. COCCN1CCN(C(C)c2nc(C3CC3)no2)CC1 (stereo not given) read Mtb glucose medium: -18.75%; Mtb cholesterol medium: -7.51%.

Repeated from the top, 2 entries:

| structure | Mtb glucose medium | Mtb cholesterol medium |
|---|---|---|
| `CC1c2ncc(COCC3CC3)n2CCN1C.O=C(O)C(F)(F)F` (stereo not given) | -4.674 & -2.766 | -17.75 |
| `Cc1ccc(S(=O)(=O)Cc2noc([C@@H]3C[C@@H](O)CN3)n2)cc1` | 12.07 & 0.09911 | 4.492 |